From US11118208B2, “Methods for modulating protein galactosylation profiles of recombinant proteins using peracetyl galactose” (ARES TRADING S.A., priority 2016, dated 2021)
Some entries share one result that the patent states for a list of compounds.

Tests used:
[1] = test system: galactosylation of mAb1 antibody (mAb1 cells); experiment: Glycosylation profile of mAb1 produced in DWP (CGE-LIF); type: cell-based, Chinese hamster; details: within the possible analytical noise
Procedure: (§1) First assays were performed with an antibody produced in a CHO cell line: CHO-S cells expressing IgG1 mAb1, herein “Cells mAb1” or “mAb1 cells”. “mAb1” is a fully human monoclonal antibody directed against a soluble protein. Its isoelectric point (pI) is about 8.20-8.30.
(§2) For examples 1-3: A serum-free chemically defined culture medium was used. It was used as it is, or it was supplemented with α- or β-2-F-peracetyl galactose (herein α- or β-2F-pGal; Biosynth & AX Molecules) at different concentrations (0-200 μM before seeding). The concentrations indicated on FIGS. 1, 2, 3 and 4 are the concentrations in α- or β-2F-pGal in the culture medium at day 0, just before the inoculation. The culture medium was fed, on a regular basis, with a chemically defined feed medium, as well as with glucose in order to keep said glucose level in the range of >0 to about 8 g/L (feeds are done at days 3, 5, 7, 10 and 12).
The cultures were performed in deepwell plates (DWP) with a working volume of 450 μL. […]
(§3) Glycosylation profiles were established by capillary gel electrophoresis with laser-induced fluorescence (CGE-LIF; for DWP and for Shake tubes experiments) or by Ultra Performance Liquid Chromatography-2-amino-benzamide labelling technique (2AB-UPLC; for Shake tubes experiments). […]
The cells were cultivated and the results analysed as disclosed in the material and method section. […]

[2] = test system: galactosylation of mAb1 antibody (mAb1 cells); experiment: Glycosylation profile of mAb1 produced in TubeSpin (CGE-LIF); type: cell-based, Chinese hamster; details: within the possible analytical noise
Procedure: as §1, §2
The cultures were performed in deepwell plates (DWP) with a working volume of 450 μL. They were incubated at 36.5° C., 5% de CO2, 90% humidity and shaken at 320 rpm. Each of the fed-batch culture lasted 14 days. […]
as §3

Row | Structure (SMILES) | absolute change compared to control of mannosylated, non-fucosylated and fucosylated oligosaccharides [1] | absolute change compared to control of mannosylated, non-fucosylated and fucosylated oligosaccharides [2]
1 | CC(=O)OC[C@H]1OC(OC(C)=O)[C@H](F)[C@@H](OC(C)=O)[C@H]1OC(C)=O (stereo in doubt) [α-2F-pGal, α/β-D-galactopyranose, 2-deoxy-2-fluoro-,1,3,4,6-tetraacetate] | less than 1% | less than 1%
2 | CC(=O)OC[C@H]1O[C@@H](OC(C)=O)[C@H](F)[C@@H](OC(C)=O)[C@H]1OC(C)=O [β-2F-pGal, α/β-D-galactopyranose, 2-deoxy-2-fluoro-,1,3,4,6-tetraacetate] | less than 1% | less than 1%
